The other results are listed elsewhere or left out. Repeats in this data set agree poorly, so a single value says little.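 Human fetal ventral-midbrain neural progenitor line ReNCell VM, differentiated without mitogens. Images stained for doublecortin (early neurons) or tyrosine hydroxylase (dopaminergic neurons) were scored by blinded raters against untreated wells (0 = no change). Repeats and both raters were averaged, and compounds averaging 2 or higher were picked as hits for retesting.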
What follows are compounds tested on ReNCell VM (assay: dopaminergic neuron differentiation score (TH+ cell fraction vs untreated, manual image score) (score (0 to 3)); higher = more TH+ dopaminergic neuron differentiation). Settings: library: Spectrum; 2 uM; 4 weeks; BDNF 10 ng/ml + GDNF 10 ng/ml.

Dopaminergic neuron differentiation score, inactive:
CC(=O)OCC(=O)[C@@]1(O)[C@H](OC(C)=O)C[C@H]2[C@@H]3CCC4=CC(=O)C=C[C@]4(C)[C@@]3(F)[C@@H](O)C[C@@]21C 0
COc1cc(O)c(C(=O)/C=C/c2ccc(O)c(OC)c2)c(OC)c1 0
O=c1cc(-c2ccccc2O)oc2cc(O)ccc12 0
COC(=O)/C(=C1/OC(=O)C(c2ccccc2)=C1O)c1ccccc1 0
CCc1cc(C(N)=S)ccn1 0
CCCc1nc(C(C)(C)O)c(C(=O)OCc2oc(=O)oc2C)n1Cc1ccc(-c2ccccc2-c2nnn[nH]2)cc1 0
CCOC(=O)C1=C(COCCN)NC(C)=C(C(=O)OC)C1c1ccccc1Cl (stereo unspecified) 0
C[C@H]1[C@H](C)CC[C@]2(C(=O)O)CC[C@]3(C)C(=CC[C@@H]4[C@@]5(C)C[C@@H](O)[C@H](O)[C@@](C)(CO)[C@@H]5[C@H](O)C[C@]43C)[C@H]12 0
CC(C)n1c(/C=C/C(O)CC(O)CC(=O)O)c(-c2ccc(F)cc2)c2ccccc21 (stereo unspecified) 1
CC[C@H]1OC(=O)[C@H](C)[C@@H](O[C@H]2C[C@@](C)(OC)[C@@H](O)[C@H](C)O2)[C@H](C)[C@@H](O[C@@H]2O[C@H](C)C[C@H](N(C)C)[C@H]2O)[C@](C)(O)C[C@@H](C)/C(=N\OCOCCOC)[C@H](C)[C@@H](O)[C@]1(C)O 0
O=c1c2cc(O)c(O)cc2oc2cc(O)c([C@@H]3O[C@H](CO)[C@@H](O)[C@H](O)[C@H]3O)c(O)c12 0
